Data as given in publication PMC12444171, “Chromatin remodeler BRD9 represses transcription of PPARα target genes, including CPT1A to suppress lipid metabolism” (Journal of Lipid Research, 2025).
These are yes or no findings as the source states them, for the method shown. For some assays here: Binding seen in cells or lysates may run through a third protein. Some binding calls cover weakened binding; strength is not graded here. Sequences can lack the tags named with a protein.

Amino acid sequences for entries named in this document (tags omitted).
UniProt Q9H8M2: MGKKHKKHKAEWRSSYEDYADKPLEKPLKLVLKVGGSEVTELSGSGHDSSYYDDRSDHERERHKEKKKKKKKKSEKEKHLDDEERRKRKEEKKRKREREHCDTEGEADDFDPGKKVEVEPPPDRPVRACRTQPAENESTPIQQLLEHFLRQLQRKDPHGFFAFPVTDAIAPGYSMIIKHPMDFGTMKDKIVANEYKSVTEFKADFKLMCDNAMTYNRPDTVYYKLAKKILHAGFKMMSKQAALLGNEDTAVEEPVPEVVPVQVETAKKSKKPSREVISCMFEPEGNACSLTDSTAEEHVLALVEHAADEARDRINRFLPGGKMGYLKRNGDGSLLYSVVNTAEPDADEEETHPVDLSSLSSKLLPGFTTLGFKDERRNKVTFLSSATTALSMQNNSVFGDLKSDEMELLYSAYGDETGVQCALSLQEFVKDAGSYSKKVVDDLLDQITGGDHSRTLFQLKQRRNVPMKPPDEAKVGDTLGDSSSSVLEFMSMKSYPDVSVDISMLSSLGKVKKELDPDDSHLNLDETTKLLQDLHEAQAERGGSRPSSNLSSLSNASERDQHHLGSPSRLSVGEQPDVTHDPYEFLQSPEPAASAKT

T1: FLAG-PPARα (peroxisome proliferator-activated receptor α with 3×FLAG) (human) (UniProt Q07869)
T1 sequence (chain, acetylated lysine residue(s), positions not stated): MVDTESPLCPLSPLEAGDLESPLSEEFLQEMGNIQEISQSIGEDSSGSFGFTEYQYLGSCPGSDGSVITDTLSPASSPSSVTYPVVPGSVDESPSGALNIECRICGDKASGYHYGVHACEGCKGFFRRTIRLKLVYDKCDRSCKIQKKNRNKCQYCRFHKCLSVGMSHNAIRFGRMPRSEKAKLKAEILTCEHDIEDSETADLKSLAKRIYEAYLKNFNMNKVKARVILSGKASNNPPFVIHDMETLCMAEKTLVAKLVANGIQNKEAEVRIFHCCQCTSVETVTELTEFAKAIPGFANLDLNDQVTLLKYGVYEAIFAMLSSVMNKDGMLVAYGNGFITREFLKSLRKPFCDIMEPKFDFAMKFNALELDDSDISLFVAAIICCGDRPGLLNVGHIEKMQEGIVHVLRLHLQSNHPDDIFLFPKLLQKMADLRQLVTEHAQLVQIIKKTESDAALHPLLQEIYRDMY

B1: FLAG-PPARα (peroxisome proliferator-activated receptor α with 3×FLAG) (natural protein, human, UniProt Q07869 1-468, looked up)
chain: T1 sequence (chain, acetylated lysine residue(s), positions not stated)
modifications: acetylated lysine residue(s), positions not given
notes: the sites are not mapped; source: HEK293T, transfected (pcDNA3.1), in lysate; for the pull-down captured from lysate on anti-FLAG antibody-Dynabeads Protein G and washed; not shown: 3×FLAG, N-terminal, kept

Key:
[1] = target: T1, FLAG-PPARα (peroxisome proliferator-activated receptor α with 3×FLAG) (human); test: pull-down; FLAG-PPARα captured from HEK293T lysate on anti-FLAG antibody-Dynabeads Protein G and washed, then incubated with purified BRD7-His or BRD9-His for 12 h at 4°C; Western blot; both purified
[2] = target: BRD9-His (bromodomain-containing protein 9 with His tag) (human) (UniProt Q9H8M2); test: co-IP; HEK293T cells co-transfected with FLAG-PPARα and BRD7-His or BRD9-His; lysate (0.3 M NaCl, 0.5% NP-40, pH 8.0) on anti-His tag antibody-Dynabeads Protein G, 2 h at room temperature; Western blot; in Fig. 5C the cells were treated with 30 μM WY-14643 and/or 40 μM BI-9564 for 48 h (interaction markedly attenuated)

Molecule | binding [1] | binding [2]
BRD9-His (bromodomain-containing protein 9 with His tag) (from UniProt Q9H8M2 1-597) | binds | –
B1 | – | binds
